# Data published in PubChem BioAssay AID504444 (National Center for Advancing Translational Sciences (NCATS), 2011).
# Hit rate of the full screen: of about 360,000 compounds, about 7,500 (2.1%) were called active. This list was built around the results that the source calls inconclusive (neither active nor inactive); the mix of calls is not that of the screen. Calls come from the whole dose curve; as a rule, active = well fitted inhibition curve with a large enough effect; inconclusive = small, poorly fitted or top-dose-only effect, or effect the other way; inactive = flat fitted curve, though single readings scatter. A potency beside an inconclusive call is a rough fit, not a confirmed value.
# Test: Nrf2 qHTS screen for inhibitors; note: nearly all actives have a fitted effect of over 60% in size
# Conditions: A549 ARE-Fluc reporter, luciferase luminescence, 18-24 h; activity change, negative = inhibition: at 46 µM (top of the series)
# Procedure, shortened: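 Concentration-response testing used A549 ARE_Fluc cells at 5000 cells/well. Following an 18-24 h compound incubation, viability was read by fluorescence (Ex 405/Em 525) and luciferase output by luminescence.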
# % is set by controls: 0 for no effect and ±100 for the full control effect; potency is the fitted concentration of half-maximal effect.
Structure (SMILES),Potency,"activity change, negative = inhibition"
O=C(O)c1oc2ccccc2c1CSCc1ccccc1,"inconclusive: 14.6 µM [falling, partial curve, poor fit]",–
O=C1OCCN1C(=O)[C@H]1[C@H](c2ccc(Cl)cc2)C(c2cccc(Cl)c2)=NN1c1ccccc1,"inconclusive: 29.1 µM [falling, single point]",–
C=CCN(c1cccc(C(F)(F)F)c1)S(=O)(=O)c1cccc(C(=O)OCC(=O)NC)c1,"inconclusive: 0.82 µM [falling, full curve, poor fit]",–
CC(C)C(=O)NC(c1ccc([N+](=O)[O-])cc1)c1c(O)ccc2ccccc12 (centres undefined),"inconclusive: 16.4 µM [falling, single point]",–
O=C(NCc1ccccc1)c1cc(-c2cccs2)on1,"inconclusive: 5.17 µM [activator, full curve]",–
O=c1nccc(N/N=C/c2ccccc2O)[nH]1,–,inactive: 14%
Cc1nn(CC(=O)Nc2c(F)cc(F)cc2Br)c(=O)c2cccn12,"inconclusive: 0.13 µM [activator, full curve, poor fit]",–
CCOC(=O)c1ccc(N2C(=O)c3[nH]nc(-c4ccc(C)cc4)c3C2c2cccc(F)c2)cc1 (centres undefined),active: 20.6 µM,–
Cc1ccnc2c(N3C(=O)C4C5c6ccccc6C(c6ccccc65)C4C3=O)cccc12 (centres undefined),"inconclusive: 29.1 µM [falling, single point]",–
COc1ccc(OCc2ccc(-c3nc4ccccc4c(=O)n3N)o2)cc1,"inconclusive: 0.651 µM [activator, full curve, poor fit]",–
CCc1ccc(C(=O)c2cn(CC(=O)Nc3cccc(OC)c3)c3ccc(OC)cc3c2=O)cc1,–,inactive: -21.4%
COc1cc(/C=N/NC(=O)COc2c(C)cc([N+](=O)[O-])cc2C)ccc1OC(=O)c1ccccc1Br,"inconclusive: 23.1 µM [falling, partial curve, poor fit]",–
CCOC(=O)c1c(COc2ccccc2)oc2ccc(O)cc12,"inconclusive: 11.2 µM [falling, single point]",–
CN(c1ccccc1)S(=O)(=O)c1cc(C(=O)Nc2nc3ccccc3[nH]2)ccc1Cl,"inconclusive: 29.1 µM [falling, single point]",–
O=C1CC(C(=O)Nc2ccc(O)c(C(=O)O)c2)C(c2ccccc2)O1 (centres undefined),–,inactive: -6.67%
O=C1c2cccc(OCc3ccc(F)cc3)c2CCN1Cc1ccc(F)cc1,active: 16.4 µM,–
COc1ccc(N2CCN(C(=O)Cc3ccc(OC)c(OC)c3)CC2)cc1,"inconclusive: 18.4 µM [falling, single point]",–
CCN(CC)C(=O)c1cc(-c2ccc3c(c2)OCO3)on1,"inconclusive: 5.17 µM [activator, full curve]",–
CC(=O)c1c(C)[nH]c(C(=O)CSc2nnc(-c3ccccc3)o2)c1C,active: 20.6 µM,–
COc1ccccc1CNC(=O)COC(=O)c1n[nH]c2ccccc12,"inconclusive: 16.4 µM [falling, partial curve, poor fit]",–
O=C(Nc1cc2c(cc1Br)OCCO2)c1cccnc1,–,inactive: -0.26%
Cc1ccc(C)c(OCC(=O)NCCNC(=O)COc2cc(C)ccc2C)c1,–,inactive: 15.3%

Structure (SMILES),Potency,"activity change, negative = inhibition"
Cc1oc2cc(O)ccc2c(=O)c1Oc1ccccc1,–,inactive: 34.8%
Cc1ccc2nsnc2c1S(=O)(=O)NCc1ccncc1,"inconclusive: 11.6 µM [falling, partial curve]",–
O=Cc1c(OCc2ccccc2)ccc2ccccc12,"inconclusive: 29.1 µM [activator, single point]",–
CCN(C(=O)COC(=O)CCOc1ccc(C(C)(C)C)cc1)c1c(N)n(Cc2ccccc2)c(=O)[nH]c1=O,–,inactive: -18.2%
Cc1cccc(-n2ncc(C(=O)N3CCN(c4ccc(Cl)cc4)CC3)c2C2CCN(C(=O)OC(C)(C)C)CC2)c1,"inconclusive: 18.4 µM [falling, single point]",–
CC(=O)OC1CC2(C)C(=O)CCC2C2CCc3cc(O)ccc3C12 (centres undefined),"inconclusive: 0.164 µM [falling, full curve, poor fit]",–
COc1ccc(NC(=O)CCN(c2ccc(OC)cc2)S(=O)(=O)c2ccc(C)c(C)c2)cc1,"inconclusive: 16.4 µM [falling, partial curve, poor fit]",–
Cc1ccc2c(c1)-c1c(ssc1=S)C(C)(C)N2C(=O)c1ccco1,"inconclusive: 29.1 µM [falling, single point]",–
COc1ccc2c(=O)c(-c3ccc4c(c3)OCO4)coc2c1,"inconclusive: 0.0651 µM [activator, full curve, poor fit]",–
c1cncc(-c2csc(-c3cccnc3)n2)c1,"inconclusive: 29.1 µM [activator, partial curve, poor fit]",–
Cc1cccc(NC(=O)CSCC(=O)N(CCC(C)C)c2c(N)n(Cc3ccccc3)c(=O)[nH]c2=O)c1,"inconclusive: 25.9 µM [falling, single point]",–
CCNC(=S)N1CCC(C(=O)c2ccc(Cl)cc2)CC1,"inconclusive: 2.31 µM [falling, partial curve, poor fit]",–
COCCN1CCN(c2cc(-c3ccccc3)nc3cc(-c4cccc(F)c4)nn23)CC1,"inconclusive: 16.4 µM [falling, single point]",–
Cc1nc2c(-c3ccccc3)cnn2c(N2CCOCC2)c1C,"inconclusive: 10.3 µM [activator, partial curve]",–
CS(=O)(=O)Nc1cccc(C2=NN(C(=O)c3ccco3)C(c3cccs3)C2)c1 (centres undefined),"inconclusive: 18.4 µM [falling, partial curve, poor fit]",–
COc1c(Cl)cccc1-c1cn2ccc(C)cc2n1,"inconclusive: 10.3 µM [activator, partial curve]",–
O=C(COc1ccc2c3c(c(=O)oc2c1)CCCC3)NCc1ccncc1,"inconclusive: 23.1 µM [falling, single point]",–
CCCC/C=C/[C@H](c1ccccc1)[C@H](CO)Cc1ccc([N+](=O)[O-])cc1,"inconclusive: 29.1 µM [falling, partial curve, poor fit]",–
Cc1cc(Cl)ccc1Nc1ncccc1C(N)=O,"inconclusive: 7.31 µM [activator, partial curve, poor fit]",–
CCn1c(=O)cc(SCC(=O)NCc2ccc(F)cc2Cl)c2ccccc21,"inconclusive: 23.1 µM [falling, single point]",–
CCOC(=O)c1c(C)n(-c2ccc(C)cc2)c2c(C(C(C)=O)C(=O)O)c(Br)c(O)c(O)c12 (centres undefined),–,inactive: -19.9%
Cc1cc(C)n2c(SCc3ccc(Br)cc3)nnc2n1,–,inactive: -16.3%

# Some of the entries so far, with tabs:
Structure (SMILES)	Potency	activity change, negative = inhibition
Cc1ccnc2c(N3C(=O)C4C5c6ccccc6C(c6ccccc65)C4C3=O)cccc12 (centres undefined)	inconclusive: 29.1 µM [falling, single point]	–
COc1ccc(OCc2ccc(-c3nc4ccccc4c(=O)n3N)o2)cc1	inconclusive: 0.651 µM [activator, full curve, poor fit]	–

# Going on with the list:

Structure (SMILES),Potency,"activity change, negative = inhibition"
Cc1cc(C)nc(/N=C(\N)Nc2ccc(-c3ccccc3)cc2)n1,"inconclusive: 9.2 µM [falling, partial curve, poor fit]",–
COC(=O)C1=C(CS(=O)(=O)c2ccccc2)NC(=O)NC1c1ccc(OC)c(OC)c1 (centres undefined),"inconclusive: 14.6 µM [falling, partial curve, poor fit]",–
Cc1ccc(OC(C)C(=O)Nc2ccncc2)cc1 (centres undefined),"inconclusive: 23.1 µM [falling, single point]",–
O=C(NCCCl)c1ccc(OCc2ccccc2)cc1Cl,"inconclusive: 16.4 µM [activator, partial curve, poor fit]",–
CC(CCCCCCCCC(=O)O)N(CCO)C(=O)OC(C)(C)C (centres undefined),"inconclusive: 9.2 µM [falling, partial curve, poor fit]",–
Clc1cccc2sc(N3CCCC3)nc12,"inconclusive: 14.6 µM [activator, partial curve]",–
CC1(C)CC2(CCO1)OC(=O)CC2C(=O)Nc1ccccc1Cl (centres undefined),"inconclusive: 25.9 µM [activator, single point]",–
c1ccc(SCc2nc(-c3ccccn3)no2)cc1,"inconclusive: 3.26 µM [activator, full curve]",–
COC(=O)CNc1c(-c2ccccc2)nc2ccc(Br)cn12,"inconclusive: 20.6 µM [falling, single point]",–
Cn1cnc2c1c(=O)n(Cc1ccc(Cl)cc1Cl)c(=O)n2C,"inconclusive: 0.146 µM [falling, full curve, poor fit]",–
CC(C)(C)c1ccc(C(=O)OCCNC(=O)c2c(Cl)nc3ccccn23)cc1,"inconclusive: 25.9 µM [falling, partial curve, poor fit]",–
O=C(Nc1ccn(Cc2ccc(Cl)cc2)n1)c1ccccc1,"inconclusive: 16.4 µM [activator, partial curve]",–
CC(C)(C)c1cc(N)n2nc(C(C)(C)C)cc2n1,"inconclusive: 20.6 µM [falling, single point]",–
CN(Cc1nccn1C)C(=O)c1ccc2nc(Cc3ccccc3F)oc2c1,"inconclusive: 7.31 µM [activator, partial curve]",–
CC(C)N(C=O)C1(C(=O)NC2CCCCC2)CCCCC1,"inconclusive: 0.0041 µM [falling, full curve, poor fit]",–
Cc1nc2ccccc2n1Cc1ccc(Br)cc1,"inconclusive: 2.31 µM [falling, full curve]",–
N#Cc1c(-c2ccccc2)c(-c2ccccc2)nn(CC(=O)NNC(=O)Nc2ccc(Cl)c(Cl)c2)c1=O,"inconclusive: 29.1 µM [falling, single point]",–
CC(C)c1ccc(OCC(=O)NC(Cc2c[nH]c3ccccc23)C(=O)O)cc1 (centres undefined),"inconclusive: 1.16 µM [activator, full curve, poor fit]",–
CN(C)C(=O)N1CCC(C(=O)N2CCCC(C(=O)c3cccc4ccccc34)C2)CC1 (centres undefined),"inconclusive: 11.6 µM [falling, partial curve]",–
CCc1ccccc1NC(=O)CN(Cc1ccccc1)S(=O)(=O)c1ccc(Br)cc1,–,inactive: -10.8%
